Measurements: paper PMC10323252
Results are given in words; binding and its absence hold for the method and conditions named. In cells and extracts the contact can be indirect. These calls come from enrichment with a bait or labelling near it, and not all partners need be listed. For some assays here: Tags and fused reporters may be left off the sequences shown.

By UniProt entry, the sequences of proteins in these tests, tags left out.
UniProt P62491: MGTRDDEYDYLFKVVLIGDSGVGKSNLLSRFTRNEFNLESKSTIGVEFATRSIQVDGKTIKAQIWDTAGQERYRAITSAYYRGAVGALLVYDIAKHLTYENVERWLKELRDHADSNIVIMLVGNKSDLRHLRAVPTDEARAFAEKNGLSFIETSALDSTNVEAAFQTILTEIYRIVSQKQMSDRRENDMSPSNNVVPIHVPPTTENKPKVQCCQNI

T1: mycBirA*–Rab25 (UniProt P57735)
T1 sequence: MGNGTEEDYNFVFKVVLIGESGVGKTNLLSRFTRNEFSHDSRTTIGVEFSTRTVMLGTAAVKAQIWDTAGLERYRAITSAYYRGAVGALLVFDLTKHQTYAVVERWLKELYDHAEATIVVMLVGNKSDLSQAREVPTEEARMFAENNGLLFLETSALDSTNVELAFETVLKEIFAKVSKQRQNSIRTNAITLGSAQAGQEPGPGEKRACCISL


What was measured:
[1] = molecular target: T1, mycBirA*–Rab25; experiment: proximity labelling; BioID: A2780 cells stably expressing mycBirA*-Rab baits (mycBirA* alone as control), 1 uM biotin for 16 h; lysis in 0.4% SDS, 500 mM NaCl buffer; streptavidin microspheres; LC-MS/MS with label-free quantification, four replicates; high-confidence list by SAINTexpress (BFDR<=0.05), longlist by >2-fold enrichment; biotin-modified peptides also scored
[2] = molecular target: mycBirA*–Rab11a (UniProt P62491); experiment: as above

binding [1]	binding [2]	Binder
binds		TBC1D15 (protein, UniProt Q8TC07 1-691) MAAAGVVSGKIIYEQEGVYIHSSCGKTNDQDGLISGILRVLEKDAEVIVDWRPLDDALDSSSILYARKDSSSVVEWTQAPKERGHRGSEHLNSYEAEWDMVNTVSFKRKPHTNGDAPSHRNGKSKWSFLFSLTDLKSIKQNKEGMGWSYLVFCLKDDVVLPALHFHQGDSKLLIESLEKYVVLCESPQDKRTLLVNCQNKSLSQSFENLLDEPAYGLIQAGLLDRRKLLWAIHHWKKIKKDPYTATMIGFSKVTNYIFDSLRGSDPSTHQRPPSEMADFLSDAIPGLKINQQEEPGFEVITRIDLGERPVVQRREPVSLEEWTKNIDSEGRILNVDNMKQMIFRGGLSHALRKQAWKFLLGYFPWDSTKEERTQLQKQKTDEYFRMKLQWKSISQEQEKRNSRLRDYRSLIEKDVNRTDRTNKFYEGQDNPGLILLHDILMTYCMYDFDLGYVQGMSDLLSPLLYVMENEVDAFWCFASYMDQMHQNFEEQMQGMKTQLIQLSTLLRLLDSGFCSYLESQDSGYLYFCFRWLLIRFKREFSFLDILRLWEVMWTELPCTNFHLLLCCAILESEKQQIMEKHYGFNEILKHINELSMKIDVEDILCKAEAISLQMVKCKELPQAVCEILGLQGSEVTTPDSDVGEDENVVMTPCPTSAFQSNALPTLSASGARNDSPTQIPVSSDVCRLTPA
	binds	VPS33B (protein, UniProt Q9H267 1-617) MAFPHRPDAPELPDFSMLKRLARDQLIYLLEQLPGKKDLFIEADLMSPLDRIANVSILKQHEVDKLYKVENKPALSSNEQLCFLVRPRIKNMRYIASLVNADKLAGRTRKYKVIFSPQKFYACEMVLEEEGIYGDVSCDEWAFSLLPLDVDLLSMELPEFFRDYFLEGDQRWINTVAQALHLLSTLYGPFPNCYGIGRCAKMAYELWRNLEEEEDGETKGRRPEIGHIFLLDRDVDFVTALCSQVVYEGLVDDTFRIKCGSVDFGPEVTSSDKSLKVLLNAEDKVFNEIRNEHFSNVFGFLSQKARNLQAQYDRRRGMDIKQMKNFVSQELKGLKQEHRLLSLHIGACESIMKKKTKQDFQELIKTEHALLEGFNIRESTSYIEEHIDRQVSPIESLRLMCLLSITENGLIPKDYRSLKTQYLQSYGPEHLLTFSNLRRAGLLTEQAPGDTLTAVESKVSKLVTDKAAGKITDAFSSLAKRSNFRAISKKLNLIPRVDGEYDLKVPRDMAYVFGGAYVPLSCRIIEQVLERRSWQGLDEVVRLLNCSDFAFTDMTKEDKASSESLRLILVVFLGGCTFSEISALRFLGREKGYRFIFLTTAVTNSARLMEAMSEVKA

Continued, binder first:

Binder	binding [1]	binding [2]
ARHGAP12 (protein, UniProt Q8IWW6 1-846) MKMADRSGKIIPGQVYIEVEYDYEYEAKDRKIVIKQGERYILVKKTNDDWWQVKPDENSKAFYVPAQYVKEVTRKALMPPVKQVAGLPNNSTKIMQSLHLQRSTENVNKLPELSSFGKPSSSVQGTGLIRDANQNFGPSYNQGQTVNLSLDLTHNNGKFNNDSHSPKVSSQNRTRSFGHFPGPEFLDVEKTSFSQEQSCDSAGEGSERIHQDSESGDELSSSSTEQIRATTPPNQGRPDSPVYANLQELKISQSALPPLPGSPAIQINGEWETHKDSSGRCYYYNRGTQERTWKPPRWTRDASISKGDFQNPGDQELLSSEENYYSTSYSQSDSQCGSPPRGWSEELDERGHTLYTSDYTNEKWLKHVDDQGRQYYYSADGSRSEWELPKYNASSQQQREIIKSRSLDRRLQEPIVLTKWRHSTIVLDTNDKESPTASKPCFPENESSPSSPKHQDTASSPKDQEKYGLLNVTKIAENGKKVRKNWLSSWAVLQGSSLLFTKTQGSSTSWFGSNQSKPEFTVDLKGATIEMASKDKSSKKNVFELKTRQGTELLIQSDNDTVINDWFKVLSSTINNQAVETDEGIEEEIPDSPGIEKHDKEKEQKDPKKLRSFKVSSIDSSEQKKTKKNLKKFLTRRPTLQAVREKGYIKDQVFGSNLANLCQRENGTVPKFVKLCIEHVEEHGLDIDGIYRVSGNLAVIQKLRFAVNHDEKLDLNDSKWEDIHVITGALKMFFRELPEPLFTFNHFNDFVNAIKQEPRQRVAAVKDLIRQLPKPNQDTMQILFRHLRRVIENGEKNRMTYQSIAIVFGPTLLKPEKETGNIAVHTVYQNQIVELILLELSSIFGR	binds	
KIAA1468 (protein, UniProt Q9P260 1-1216) MAAMAPGGSGSGGGVNPFLSDSDEDDDEVAATEERRAVLRLGAGSGLDPGSAGSLSPQDPVALGSSARPGLPGEASAAAVALGGTGETPARLSIDAIAAQLLRDQYLLTALELHTELLESGRELPRLRDYFSNPGNFERQSGTPPGMGAPGVPGAAGVGGAGGREPSTASGGGQLNRAGSISTLDSLDFARYSDDGNRETDEKVAVLEFELRKAKETIQALRANLTKAAEHEVPLQERKNYKSSPEIQEPIKPLEKRALNFLVNEFLLKNNYKLTSITFSDENDDQDFELWDDVGLNIPKPPDLLQLYRDFGNHQVTGKDLVDVASGVEEDELEALTPIISNLPPTLETPQPAENSMLVQKLEDKISLLNSEKWSLMEQIRRLKSEMDFLKNEHFAIPAVCDSVQPPLDQLPHKDSEDSGQHPDVNSSDKGKNTDIHLSISDEADSTIPKENSPNSFPRREREGMPPSSLSSKKTVHFDKPNRKLSPAFHQALLSFCRMSADSRLGYEVSRIADSEKSVMLMLGRCLPHIVPNVLLAKREELIPLILCTACLHPEPKERDQLLHILFNLIKRPDDEQRQMILTGCVAFARHVGPTRVEAELLPQCWEQINHKYPERRLLVAESCGALAPYLPKEIRSSLVLSMLQQMLMEDKADLVREAVIKSLGIIMGYIDDPDKYHQGFELLLSALGDPSERVVSATHQVFLPAYAAWTTELGNLQSHLILTLLNKIEKLLREGEHGLDEHKLHMYLSALQSLIPSLFALVLQNAPFSSKAKLHGEVPQIEVTRFPRPMSPLQDVSTIIGSREQLAVLLQLYDYQLEQEGTTGWESLLWVVNQLLPQLIEIVGKINVTSTACVHEFSRFFWRLCRTFGKIFTNTKVKPQFQEILRLSEENIDSSAGNGVLTKATVPIYATGVLTCYIQEEDRKLLVGFLEDVMTLLSLSHAPLDSLKASFVELGANPAYHELLLTVLWYGVVHTSALVRCTAARMFELTLRGMSEALVDKRVAPALVTLSSDPEFSVRIATIPAFGTIMETVIQRELLERVKMQLASFLEDPQYQDQHSLHTEIIKTFGRVGPNAEPRFRDEFVIPHLHKLALVNNLQIVDSKRLDIATHLFEAYSALSCCFISEDLMVNHFLPGLRCLRTDMEHLSPEHEVILSSMIKECEQKVENKTVQEPQGSMSIAASLVSEDTKTKFLNKMGQLTTSGAMLANVFQRKK	binds	binds
OSBPL9 (protein, UniProt Q96SU4 1-736) MASIMEGPLSKWTNVMKGWQYRWFVLDYNAGLLSYYTSKDKMMRGSRRGCVRLRGAVIGIDDEDDSTFTITVDQKTFHFQARDADEREKWIHALEETILRHTLQLQGLDSGFVPSVQDFDKKLTEADAYLQILIEQLKLFDDKLQNCKEDEQRKKIETLKETTNSMVESIKHCIVLLQIAKDQSNAEKHADGMISTINPVDAIYQPSPLEPVISTMPSQTVLPPEPVQLCKSEQRPSSLPVGPVLATLGHHQTPTPNSTGSGHSPPSSSLTSPSHVNLSPNTVPEFSYSSSEDEFYDADEFHQSGSSPKRLIDSSGSASVLTHSSSGNSLKRPDTTESLNSSLSNGTSDADLFDSHDDRDDDAEAGSVEEHKSVIMHLLSQVRLGMDLTKVVLPTFILERRSLLEMYADFFAHPDLFVSISDQKDPKDRMVQVVKWYLSAFHAGRKGSVAKKPYNPILGEIFQCHWTLPNDTEENTELVSEGPVPWVSKNSVTFVAEQVSHHPPISAFYAECFNKKIQFNAHIWTKSKFLGMSIGVHNIGQGCVSCLDYDEHYILTFPNGYGRSILTVPWVELGGECNINCSKTGYSANIIFHTKPFYGGKKHRITAEIFSPNDKKSFCSIEGEWNGVMYAKYATGENTVFVDTKKLPIIKKKVRKLEDQNEYESRSLWKDVTFNLKIRDIDAATEAKHRLEERQRAEARERKEKEIQWETRLFHEDGECWVYDEPLLKRLGAAKH	binds	binds
SMCR8 (protein, UniProt Q8TEV9 1-937) MISAPDVVAFTKEEEYEEEPYNEPALPEEYSVPLFPFASQGANPWSKLSGAKFSRDFILISEFSEQVGPQPLLTIPNDTKVFGTFDLNYFSLRIMSVDYQASFVGHPPGSAYPKLNFVEDSKVVLGDSKEGAFAYVHHLTLYDLEARGFVRPFCMAYISADQHKIMQQFQELSAEFSRASECLKTGNRKAFAGELEKKLKDLDYTRTVLHTETEIQKKANDKGFYSSQAIEKANELASVEKSIIEHQDLLKQIRSYPHRKLKGHDLCPGEMEHIQDQASQASTTSNPDESADTDLYTCRPAYTPKLIKAKSTKCFDKKLKTLEELCDTEYFTQTLAQLSHIEHMFRGDLCYLLTSQIDRALLKQQHITNFLFEDFVEVDDRMVEKQESIPSKPSQDRPPSSSLEECPIPKVLISVGSYKSSVESVLIKMEQELGDEEYKEVEVTELSSFDPQENLDYLDMDMKGSISSGESIEVLGTEKSTSVLSKSDSQASLTVPLSPQVVRSKAVSHRTISEDSIEVLSTCPSEALIPDDFKASYPSAINEEESYPDGNEGAIRFQASISPPELGETEEGSIENTPSQIDSSCCIGKESDGQLVLPSTPAHTHSDEDGVVSSPPQRHRQKDQGFRVDFSVENANPSSRDNSCEGFPAYELDPSHLLASRDISKTSLDNYSDTTSYVSSVASTSSDRIPSAYPAGLSSDRHKKRAGQNALKFIRQYPFAHPAIYSLLSGRTLVVLGEDEAIVRKLVTALAIFVPSYGCYAKPVKHWASSPLHIMDFQKWKLIGLQRVASPAGAGTLHALSRYSRYTSILDLDNKTLRCPLYRGTLVPRLADHRTQIKRGSTYYLHVQSMLTQLCSKAFLYTFCHHLHLPTHDKETEELVASRQMSFLKLTLGLVNEDVRVVQYLAELLKLHYMQESPGTSHPMLRFDYVPSFLYKI	binds	
